Experimental data: the supplement of paper PMC12819154, “High-throughput peptide-centric local stability assay extends protein–ligand identification to membrane proteins, tissues and bacteria” (Nature Structural & Molecular Biology, 2025)
The other results are listed elsewhere or left out. Most values lie at the level of the controls, where differences are scatter.

Protein sequences, listed by entry. Tags and fused reporters are not part of them. Lines headed by an entry give the natural chain unless they say otherwise; changes in a name come on top.
UniProt Q9H0A6: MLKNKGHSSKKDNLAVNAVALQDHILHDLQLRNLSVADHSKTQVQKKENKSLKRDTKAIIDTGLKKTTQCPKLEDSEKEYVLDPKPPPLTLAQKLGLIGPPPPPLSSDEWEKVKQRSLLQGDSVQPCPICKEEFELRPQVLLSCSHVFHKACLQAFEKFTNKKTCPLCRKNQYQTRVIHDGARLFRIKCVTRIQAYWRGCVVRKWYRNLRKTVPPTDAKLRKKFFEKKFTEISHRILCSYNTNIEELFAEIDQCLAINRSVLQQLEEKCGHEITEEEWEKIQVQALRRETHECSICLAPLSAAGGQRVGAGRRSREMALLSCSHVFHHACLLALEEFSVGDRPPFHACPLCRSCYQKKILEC
UniProt Q9BZE2: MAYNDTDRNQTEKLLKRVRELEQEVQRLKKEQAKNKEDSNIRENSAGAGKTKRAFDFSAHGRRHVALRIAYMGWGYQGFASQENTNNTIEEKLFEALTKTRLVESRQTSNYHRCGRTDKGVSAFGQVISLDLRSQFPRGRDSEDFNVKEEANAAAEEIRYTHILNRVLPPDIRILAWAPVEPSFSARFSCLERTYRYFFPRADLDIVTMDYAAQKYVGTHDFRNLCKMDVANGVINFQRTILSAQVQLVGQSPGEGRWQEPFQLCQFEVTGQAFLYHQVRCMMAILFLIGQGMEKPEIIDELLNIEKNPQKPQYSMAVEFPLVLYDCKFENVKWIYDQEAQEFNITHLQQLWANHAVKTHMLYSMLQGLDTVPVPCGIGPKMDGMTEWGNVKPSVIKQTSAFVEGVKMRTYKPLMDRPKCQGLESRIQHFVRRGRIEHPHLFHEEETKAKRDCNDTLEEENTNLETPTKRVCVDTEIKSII
UniProt Q9BWG6: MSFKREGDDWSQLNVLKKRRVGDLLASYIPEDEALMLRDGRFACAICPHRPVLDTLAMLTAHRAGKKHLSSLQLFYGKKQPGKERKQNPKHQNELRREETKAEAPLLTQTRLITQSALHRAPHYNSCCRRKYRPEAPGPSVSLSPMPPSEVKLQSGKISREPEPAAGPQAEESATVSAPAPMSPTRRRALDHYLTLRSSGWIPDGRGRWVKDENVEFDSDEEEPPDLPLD
UniProt Q9H1J1: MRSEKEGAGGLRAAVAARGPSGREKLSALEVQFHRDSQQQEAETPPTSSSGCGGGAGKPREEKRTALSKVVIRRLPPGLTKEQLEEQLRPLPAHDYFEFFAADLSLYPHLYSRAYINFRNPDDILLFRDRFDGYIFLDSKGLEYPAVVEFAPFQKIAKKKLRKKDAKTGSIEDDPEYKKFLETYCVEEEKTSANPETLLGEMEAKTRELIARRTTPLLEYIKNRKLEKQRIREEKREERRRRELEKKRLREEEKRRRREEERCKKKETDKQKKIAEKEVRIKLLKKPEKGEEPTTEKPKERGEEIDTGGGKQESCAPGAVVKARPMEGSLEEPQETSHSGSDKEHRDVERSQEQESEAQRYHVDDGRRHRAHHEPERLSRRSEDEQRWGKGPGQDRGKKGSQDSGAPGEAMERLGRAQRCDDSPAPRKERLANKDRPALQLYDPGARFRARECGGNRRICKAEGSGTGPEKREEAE
UniProt Q9C0C7: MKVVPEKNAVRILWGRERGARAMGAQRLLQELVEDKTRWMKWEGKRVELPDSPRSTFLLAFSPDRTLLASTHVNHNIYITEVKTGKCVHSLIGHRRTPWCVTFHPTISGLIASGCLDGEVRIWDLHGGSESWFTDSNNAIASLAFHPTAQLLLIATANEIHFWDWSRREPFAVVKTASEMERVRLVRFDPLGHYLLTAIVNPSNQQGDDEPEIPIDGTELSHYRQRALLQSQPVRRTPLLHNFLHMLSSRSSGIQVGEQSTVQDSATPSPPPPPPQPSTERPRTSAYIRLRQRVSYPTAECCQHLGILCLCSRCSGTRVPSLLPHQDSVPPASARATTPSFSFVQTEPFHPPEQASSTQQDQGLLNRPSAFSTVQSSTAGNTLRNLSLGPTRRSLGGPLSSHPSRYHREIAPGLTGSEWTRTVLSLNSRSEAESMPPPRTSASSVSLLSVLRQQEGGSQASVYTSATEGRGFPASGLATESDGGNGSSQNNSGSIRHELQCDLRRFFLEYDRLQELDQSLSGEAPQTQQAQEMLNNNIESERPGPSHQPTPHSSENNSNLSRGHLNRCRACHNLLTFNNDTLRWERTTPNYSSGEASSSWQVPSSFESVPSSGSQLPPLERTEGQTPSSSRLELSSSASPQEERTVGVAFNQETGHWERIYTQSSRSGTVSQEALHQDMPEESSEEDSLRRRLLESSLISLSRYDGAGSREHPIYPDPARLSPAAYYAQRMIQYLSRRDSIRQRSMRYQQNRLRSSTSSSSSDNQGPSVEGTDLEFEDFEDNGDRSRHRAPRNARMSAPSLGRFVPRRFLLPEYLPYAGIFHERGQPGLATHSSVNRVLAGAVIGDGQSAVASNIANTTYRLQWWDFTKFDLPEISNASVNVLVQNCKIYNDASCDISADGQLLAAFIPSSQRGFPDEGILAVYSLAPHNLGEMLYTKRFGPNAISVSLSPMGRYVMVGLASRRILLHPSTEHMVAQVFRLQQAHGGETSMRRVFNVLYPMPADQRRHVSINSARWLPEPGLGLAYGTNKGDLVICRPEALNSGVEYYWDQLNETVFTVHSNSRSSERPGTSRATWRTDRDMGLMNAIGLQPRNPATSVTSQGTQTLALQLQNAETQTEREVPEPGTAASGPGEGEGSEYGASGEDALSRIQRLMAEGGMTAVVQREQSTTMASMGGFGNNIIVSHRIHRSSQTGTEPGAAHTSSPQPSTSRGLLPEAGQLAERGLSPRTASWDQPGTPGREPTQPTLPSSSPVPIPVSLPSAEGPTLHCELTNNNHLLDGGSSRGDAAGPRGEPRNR
UniProt Q9C0F3: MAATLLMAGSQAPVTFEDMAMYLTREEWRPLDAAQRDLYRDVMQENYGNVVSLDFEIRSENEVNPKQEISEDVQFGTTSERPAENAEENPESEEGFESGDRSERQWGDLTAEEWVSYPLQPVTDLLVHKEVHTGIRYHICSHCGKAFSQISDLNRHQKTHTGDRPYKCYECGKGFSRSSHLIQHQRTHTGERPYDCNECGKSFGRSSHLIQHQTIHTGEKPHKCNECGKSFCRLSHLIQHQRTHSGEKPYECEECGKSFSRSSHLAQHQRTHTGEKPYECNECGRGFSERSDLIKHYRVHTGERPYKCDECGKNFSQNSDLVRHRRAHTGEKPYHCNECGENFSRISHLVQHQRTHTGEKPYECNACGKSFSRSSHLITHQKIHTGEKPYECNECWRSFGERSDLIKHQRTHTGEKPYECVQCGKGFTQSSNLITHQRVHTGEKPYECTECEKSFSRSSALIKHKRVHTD
UniProt Q9BY44: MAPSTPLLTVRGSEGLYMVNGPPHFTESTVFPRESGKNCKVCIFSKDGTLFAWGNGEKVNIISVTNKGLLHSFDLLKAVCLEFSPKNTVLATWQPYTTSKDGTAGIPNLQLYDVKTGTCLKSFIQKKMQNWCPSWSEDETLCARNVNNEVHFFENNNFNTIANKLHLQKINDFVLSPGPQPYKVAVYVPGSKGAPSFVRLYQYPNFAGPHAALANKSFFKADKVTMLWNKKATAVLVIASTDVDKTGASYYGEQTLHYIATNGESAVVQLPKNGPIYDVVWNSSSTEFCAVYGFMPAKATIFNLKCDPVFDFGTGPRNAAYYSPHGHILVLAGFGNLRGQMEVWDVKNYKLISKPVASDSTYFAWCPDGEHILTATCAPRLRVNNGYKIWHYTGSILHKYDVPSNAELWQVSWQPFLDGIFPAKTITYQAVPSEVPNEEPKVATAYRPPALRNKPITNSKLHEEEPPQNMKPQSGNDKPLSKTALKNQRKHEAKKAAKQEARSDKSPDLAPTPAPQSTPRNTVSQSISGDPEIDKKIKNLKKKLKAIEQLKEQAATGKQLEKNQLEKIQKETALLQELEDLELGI
UniProt Q9BX68: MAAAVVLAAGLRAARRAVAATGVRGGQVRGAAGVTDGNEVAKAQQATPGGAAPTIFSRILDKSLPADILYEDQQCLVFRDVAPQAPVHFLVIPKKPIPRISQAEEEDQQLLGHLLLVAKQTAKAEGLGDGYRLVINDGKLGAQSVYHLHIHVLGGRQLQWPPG
UniProt Q9H1J7: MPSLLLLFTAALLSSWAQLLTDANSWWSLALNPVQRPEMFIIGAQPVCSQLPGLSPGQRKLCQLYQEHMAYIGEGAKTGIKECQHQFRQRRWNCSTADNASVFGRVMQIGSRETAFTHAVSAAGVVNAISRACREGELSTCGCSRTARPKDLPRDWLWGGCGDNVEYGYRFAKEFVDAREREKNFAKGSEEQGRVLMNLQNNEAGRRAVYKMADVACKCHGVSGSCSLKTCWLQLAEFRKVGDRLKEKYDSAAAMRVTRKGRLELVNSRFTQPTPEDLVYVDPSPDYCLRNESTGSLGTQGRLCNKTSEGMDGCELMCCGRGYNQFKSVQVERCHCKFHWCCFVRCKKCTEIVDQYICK
UniProt Q9H2V7: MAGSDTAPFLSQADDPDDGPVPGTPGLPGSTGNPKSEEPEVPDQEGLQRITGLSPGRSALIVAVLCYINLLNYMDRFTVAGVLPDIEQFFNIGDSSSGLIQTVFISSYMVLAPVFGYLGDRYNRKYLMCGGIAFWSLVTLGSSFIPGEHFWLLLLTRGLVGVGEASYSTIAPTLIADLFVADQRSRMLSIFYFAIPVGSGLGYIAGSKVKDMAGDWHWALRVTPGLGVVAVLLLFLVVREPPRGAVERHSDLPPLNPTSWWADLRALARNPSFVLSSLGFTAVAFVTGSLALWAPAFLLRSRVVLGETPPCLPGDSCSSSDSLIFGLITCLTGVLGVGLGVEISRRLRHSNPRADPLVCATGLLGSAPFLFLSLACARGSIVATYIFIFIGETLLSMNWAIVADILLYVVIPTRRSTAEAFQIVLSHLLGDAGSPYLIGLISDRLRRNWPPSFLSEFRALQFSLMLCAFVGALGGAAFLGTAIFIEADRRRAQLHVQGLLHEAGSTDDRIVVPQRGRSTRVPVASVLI
UniProt Q9C0B2: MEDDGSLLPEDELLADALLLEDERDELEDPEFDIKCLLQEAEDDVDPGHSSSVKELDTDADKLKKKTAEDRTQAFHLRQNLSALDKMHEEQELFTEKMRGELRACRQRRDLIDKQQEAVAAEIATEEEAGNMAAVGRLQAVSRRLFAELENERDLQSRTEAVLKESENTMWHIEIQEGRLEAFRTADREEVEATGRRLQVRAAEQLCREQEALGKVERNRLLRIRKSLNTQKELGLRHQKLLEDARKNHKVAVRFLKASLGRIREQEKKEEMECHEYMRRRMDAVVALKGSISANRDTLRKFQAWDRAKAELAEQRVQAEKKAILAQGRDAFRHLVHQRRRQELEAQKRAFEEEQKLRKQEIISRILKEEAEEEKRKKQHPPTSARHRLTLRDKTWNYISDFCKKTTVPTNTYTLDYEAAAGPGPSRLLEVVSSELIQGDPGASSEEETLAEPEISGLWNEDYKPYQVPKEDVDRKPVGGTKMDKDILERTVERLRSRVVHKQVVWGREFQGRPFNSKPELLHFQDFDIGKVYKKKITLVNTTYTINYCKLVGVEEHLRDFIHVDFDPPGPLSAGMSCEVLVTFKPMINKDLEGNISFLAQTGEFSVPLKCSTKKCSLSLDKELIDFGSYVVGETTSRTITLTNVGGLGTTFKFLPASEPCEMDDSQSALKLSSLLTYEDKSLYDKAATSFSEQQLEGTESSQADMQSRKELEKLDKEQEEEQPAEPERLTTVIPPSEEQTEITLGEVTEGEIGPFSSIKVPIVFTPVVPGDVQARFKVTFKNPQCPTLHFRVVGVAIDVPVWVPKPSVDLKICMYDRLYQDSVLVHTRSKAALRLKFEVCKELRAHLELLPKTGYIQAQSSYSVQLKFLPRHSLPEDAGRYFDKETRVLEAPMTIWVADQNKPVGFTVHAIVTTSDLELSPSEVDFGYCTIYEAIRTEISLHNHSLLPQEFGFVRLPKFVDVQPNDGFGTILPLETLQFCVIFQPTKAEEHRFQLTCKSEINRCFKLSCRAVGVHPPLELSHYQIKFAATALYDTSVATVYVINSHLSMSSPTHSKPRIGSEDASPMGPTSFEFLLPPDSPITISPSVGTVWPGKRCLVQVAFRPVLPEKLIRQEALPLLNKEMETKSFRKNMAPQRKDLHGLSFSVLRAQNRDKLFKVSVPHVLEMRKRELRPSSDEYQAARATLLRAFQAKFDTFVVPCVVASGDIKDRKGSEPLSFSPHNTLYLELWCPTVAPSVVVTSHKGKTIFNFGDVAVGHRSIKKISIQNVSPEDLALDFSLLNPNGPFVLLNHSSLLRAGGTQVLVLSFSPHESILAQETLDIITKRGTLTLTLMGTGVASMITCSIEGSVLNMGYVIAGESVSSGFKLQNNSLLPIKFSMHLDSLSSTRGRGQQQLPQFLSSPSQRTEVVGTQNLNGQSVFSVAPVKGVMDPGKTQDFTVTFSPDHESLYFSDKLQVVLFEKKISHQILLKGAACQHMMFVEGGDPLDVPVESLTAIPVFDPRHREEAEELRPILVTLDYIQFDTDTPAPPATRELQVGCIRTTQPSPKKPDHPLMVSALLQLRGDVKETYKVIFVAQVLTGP

compound: CN[C@@H]1C[C@H]2O[C@@](C)([C@@H]1OC)n1c3ccccc3c3c4c(c5c6ccccc6n2c5c31)C(=O)NC4 [staurosporine]; test: log2 fold change of tryptic peptide abundance, ligand vs vehicle (limited proteolysis) (log2 ratio); higher = more trypsin-susceptible (destabilized); conditions: ligand concentration: 20 uM; sample: K562 cleared lysate; digestion: 4 min, 22 C (HT-PELSA RT4min, Orbitrap Astral)

Target | log2 fold change
UniProt Q9H0A6 (peptide sequence: PPPLTLAQK, peptide start residue: 86) | -0.0253
PUS3 (peptide sequence: IEHPHLFHEEETK, peptide start residue: 436) (UniProt Q9BZE2) | -0.255
SCNM1 (peptide sequence: AEAPLLTQTR, peptide start residue: 102) (UniProt Q9BWG6) | 0.224
UPF3A (peptide sequence: AHHEPER, peptide start residue: 371) (UniProt Q9H1J1) | 0.456
AMBRA1 (peptide sequence: FLLPEYLPYAGIFHER, peptide start residue: 809) (UniProt Q9C0C7) | -0.215
UniProt Q9BZQ8 (peptide sequence: AMVAQPAEK, peptide start residue: 329) | 0.306
UniProt Q9C0F3 (peptide sequence: VHTGEKPYECTECEK, peptide start residue: 439) | -1.18
EIF2A (peptide sequence: SPDLAPTPAPQSTPR, peptide start residue: 506) (UniProt Q9BY44) | -0.316
WDR61 (peptide sequence: LWDLENGK, peptide start residue: 90) (UniProt Q9GZS3) | 0.275
HINT2 (peptide sequence: GAAGVTDGNEVAK, peptide start residue: 30) (UniProt Q9BX68) | -0.33
UniProt Q9H1J7 (peptide sequence: ETAFTHAVSAAGVVNAISR, peptide start residue: 113) | 0.0966
SPNS1 (peptide sequence: STRVPVASVLI, peptide start residue: 518) (UniProt Q9H2V7) | -0.119
FN3K (peptide sequence: LKEEENTVGR, peptide start residue: 121) (UniProt Q9H479) | 0.187
UniProt Q9C0B2 (peptide sequence: TQAFHLR, peptide start residue: 72) | 0.266
HDAC8 (peptide sequence: IQQILNYIK, peptide start residue: 362) (UniProt Q9BY41) | 0.288
UniProt Q9H0W8 (peptide sequence: GMGTAAPAAMDPVVGQAK, peptide start residue: 153) | -0.294

Retrieved one by one from above, two records:
Target | log2 fold change
FN3K (peptide sequence: LKEEENTVGR, peptide start residue: 121) (UniProt Q9H479) | 0.187
UniProt Q9H0W8 (peptide sequence: GMGTAAPAAMDPVVGQAK, peptide start residue: 153) | -0.294
